Results from patent publication US6495529B1 (Warner-Lambert Company, priority 1998, dated 2002).

Sequences of proteins named here, by UniProt entry; tags and fusion partners are left off.
UniProt P54833, whole entry: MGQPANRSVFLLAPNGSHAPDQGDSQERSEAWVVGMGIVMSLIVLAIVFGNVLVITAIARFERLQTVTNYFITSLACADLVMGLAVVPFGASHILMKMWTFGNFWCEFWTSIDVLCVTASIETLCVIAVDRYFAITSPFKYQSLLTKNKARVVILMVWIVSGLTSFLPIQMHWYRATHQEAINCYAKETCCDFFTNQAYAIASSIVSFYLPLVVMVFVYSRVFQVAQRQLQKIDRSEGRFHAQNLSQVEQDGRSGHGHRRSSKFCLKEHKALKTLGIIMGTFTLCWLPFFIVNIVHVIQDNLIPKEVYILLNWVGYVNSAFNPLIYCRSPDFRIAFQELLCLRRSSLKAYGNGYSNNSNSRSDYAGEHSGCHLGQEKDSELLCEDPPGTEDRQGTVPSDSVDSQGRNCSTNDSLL

Target: T1, β2-receptors (Canis lupus familiaris, UniProt P54833)
T1 construct: The lungs of mongrel dogs were separated from cartilaginous airways and major blood vessels; from tissue; host or cells: mongrel dog lung membranes
Assay: BETA-2 binding, 125Iodocyanopindolol (ICYP), canine lung membranes
Design: species or system dog
Conditions: check for β1 binding, β1-selective antagonist

## CC(C)NCC(O)COc1ccc(CC(N)=O)cc1 (stereo not shown) [Atenolol, atenolol]
  displacement of ICYP from pulmonary membranes: largely ineffective in displacing ICYP
